Structures can show the parent of a compound that is named as a salt. The list shows a part of the results. Most values come without repeats; read them as rough.
Tested on: Echinococcus multilocularis metacestodes
Experiment: vesicle damage (PGI release) relative to positive control DB1127 at 20 µM, DMSO subtracted; higher = more parasite damage
Conditions: treatment time 5 days

Cc1cn([C@@H]2C[C@@H](O)[C@H](CO)O2)c(=O)[nH]c1=O [Telbivudine] gave a vesicle damage of -1.08%.

In the case of O=C1CCc2cc(OCCCCc3nnnn3C3CCCCC3)ccc2N1 [Cilostazol], the vesicle damage is reported as -0.703%.

Molecule OC(Cn1cncn1)(Cn1cncn1)c1ccc(F)cc1F [Fluconazole] has a vesicle damage of -1.35%.

Molecule C[C@]12CC[C@@H]3c4ccc(O)cc4CC[C@H]3[C@@H]1CC[C@@H]2O [Estradiol] has a vesicle damage of -8.43%.

CCOC(=O)C1=C(C)NC(C)=C(C(=O)OC)C1c1cccc(Cl)c1Cl (stereo not given) [Felodipine] was tested, and the vesicle damage was 7.6%.

In the case of COc1cc2nc(N(C)CCCNC(=O)C3CCCO3)nc(N)c2cc1OC (stereo not given) [Alfuzosin HCL], the vesicle damage is reported as -2.66%.

CCCCC1C(=O)N(c2ccccc2)N(c2ccccc2)C1=O [Phenylbutazone] gave a vesicle damage of -0.148%.

For CCC1=C(C)CN(C(=O)NCCc2ccc(S(=O)(=O)NC(=O)N[C@H]3CC[C@H](C)CC3)cc2)C1=O [Glimepiride], the vesicle damage was -1.97%.

In the case of CCOC(=O)C1=C(COCCN)NC(C)=C(C(=O)OC)C1c1ccccc1Cl (stereo not given) [Amlodipine besylate], the vesicle damage is reported as 35.5%.

Molecule Cc1nc(Nc2ncc(C(=O)Nc3c(C)cccc3Cl)s2)cc(N2CCN(CCO)CC2)n1 [Dasatinib] has a vesicle damage of -0.523%.

Molecule CC(C)(C)NCC(O)c1ccc(O)c(CO)c1 (stereo not given) [Salbutamol sulfate] has a vesicle damage of 1.85%.

COC(=O)C1=C(C)NC(C)=C(C(=O)OCCN2CCN(C(c3ccccc3)c3ccccc3)CC2)C1c1cccc([N+](=O)[O-])c1 (stereo not given) [Manidipine dihydrochloride] was tested, and the vesicle damage was -1.04%.

With O=C(O)c1cccnc1 [Niacin] the vesicle damage was -12.4%.

Molecule Cn1c(=O)c2c(ncn2CC(O)CO)n(C)c1=O (stereo not given) [Dyphylline] has a vesicle damage of -2.04%.

With CCC1=C[C@@H]2CN(C1)Cc1c([nH]c3ccccc13)[C@@](C(=O)OC)(c1cc3c(cc1OC)N(C)[C@H]1[C@@](O)(C(=O)OC)[C@H](OC(C)=O)[C@]4(CC)C=CCN5CC[C@]31[C@@H]54)C2 [Vinorelbine] the vesicle damage was 9.59%.

CCc1cccc2c3c([nH]c12)C(CC)(CC(=O)O)OCC3 (stereo not given) [Etodolac] gave a vesicle damage of 0.409%.

Cc1noc(NS(=O)(=O)c2ccc(N)cc2)c1C [Sulfisoxazole] was tested, and the vesicle damage was -7.41%.

With CCCCC(=O)N(Cc1ccc(-c2ccccc2-c2nnn[nH]2)cc1)[C@H](C(=O)O)C(C)C [Valsartan] the vesicle damage was -10.8%.

With CCCc1nc(C)c2c(=O)nc(-c3cc(S(=O)(=O)N4CCN(CC)CC4)ccc3OCC)[nH]n12 [Vardenafil] the vesicle damage was 1.96%.

NC(=O)c1ncn([C@@H]2O[C@H](CO)[C@@H](O)[C@H]2O)n1 [Ribavirin] showed a vesicle damage of 1.09%.

In the case of COc1ccc2[nH]c([S@@+]([O-])Cc3ncc(C)c(OC)c3C)nc2c1 [Esomeprazole sodium], the vesicle damage is reported as 3.38%.

In the case of O=C(O)C1(C(=O)O)CCC1.[NH2-].[NH2-].[Pt+2] [Carboplatin], the vesicle damage is reported as -0.898%.

CC[C@@H]([C@H](C)O)n1ncn(-c2ccc(N3CCN(c4ccc(OC[C@@H]5CO[C@@](Cn6cncn6)(c6ccc(F)cc6F)C5)cc4)CC3)cc2)c1=O [Posaconazole] was tested, and the vesicle damage was -0.58%.

c1ccc2c(CC3=NCCN3)cccc2c1 [Naphazoline hydrochloride] showed a vesicle damage of -0.83%.

Work on C=CC[N+]1([C@H]2C[C@H]3[C@@H]4CC[C@H]5C[C@H](O)[C@@H](N6CCOCC6)C[C@]5(C)[C@H]4CC[C@]3(C)[C@H]2OC(C)=O)CCCC1 [Rocuronium bromide] yielded a vesicle damage of -1.71%.

Reference: the supplement of paper PMC4256282, “Profound Activity of the Anti-cancer Drug Bortezomib against Echinococcus multilocularis Metacestodes Identifies the Proteasome as a Novel Drug Target for Cestodes” (PLoS Neglected Tropical Diseases, 2014)
